According to article PMC4912613, “A broad analysis of resistance development in the malaria parasite” (Nature Communications, 2016):

Key:
Type in all cases: cell-based, Plasmodium falciparum
W2 = assay: Cross-resistance EC50 assay, W2 parent; settings: hypoxanthine 48-hour assay; synchronized parasites; 96-well format; strain W2F6 (parent)
Description: Multidrug resistance alleles, including mutations in P. falciparum chloroquine resistance transporter (pfcrt) and P. falciparum multi-drug resistance transporter 1 (pfmdr1) are very common in field isolates. Therefore, we sought to assess the degree to which pre-existing resistance alleles would contribute to a loss of potency for this diverse collection of small molecule compounds. Fifteen clones derived from three main parent lines were chosen to maximize diversity in mutated pathways and genetic backgrounds, thus representing the variety of resistance seen in the field: 3D7 (ref. [23]), W2 (ref. [24]) or Dd2 (ref. [25]). The 3D7 line originates from the clone of a Netherlands clinical isolate strain[23][26] and is generally considered to be drug sensitive, though it does convey resistance to sulfadoxine. Conversely, W2 (ref. [24], [27]) and Dd2 (ref. [25]) are multi-drug-resistant lines originating from the Indochina III/CDC isolate, which contain point mutations in pfcrt as well as amplifications in pfmdr1 and GTP cyclohydrolase.
(§1) To evaluate potential overlapping activity against known antimalarial drug targets, we performed dose-response studies with each compound against our assembled set of drug-resistant lines and their corresponding parents, in an asexual blood stage proliferation assay (Table 1). Comparisons were made to the drug-sensitive strain 3D7 when a parent was unavailable (TM90C2A, W2 and Dd2). As laboratories conducted EC50 assays with different strains and protocols, all comparisons were made between assays from the same laboratory and under the same assay conditions. Compounds displaying >5-fold EC50 shifts relative to the parent or sensitive strain were flagged as having potentially non-novel targets. Average fold shifts per strain ranged from 0.82 to 2.34, with a median of 1.23 indicating there was not common resistance to any one resistant clone. No resistance patterns were observed when classifying the compounds based on chemical structure, but this was not surprising given the diversity of compounds chosen. On the other hand, given that these confirmed compounds were derived from larger unconfirmed hit lists to which some filtration criteria may have been applied (for example, elimination of obvious dihydrofolate reductase inhibitors[32]), some[10][11][12][13] pre-existing bias may exist in the set.
The 48-h assay was carried out in a 96-well format following standard methods using the ^3H-hypoxanthine incorporation assay. The raw EC50 values corresponding to this assay can be found in Supplementary Data 3. Briefly, this assay relies on the parasite incorporation of labelled hypoxanthine that is proportional to P. falciparum growth. A culture of parasitized RBCs (0.5% parasitemia with a percentage of ring stage higher than 70% of total parasitemia, 2.0% haematocrit) in RPMI-1640, […] and 5 μM hypoxanthine was exposed to drug serial dilutions. Plates were incubated for 24 h at 37 °C, 5% CO2, 5% O2 and 90% N2. After 24 h of incubation, ^3H-hypoxanthine was added and plates were incubated for an additional 24-h period. After that, parasites were harvested on a glass fibre filter using a TOMTEC Cell Harvester 96. Filters were dried and melt-on scintillator sheets were used to determine the incorporation of ^3H-hypoxanthine. Radioactivity was measured using a microbeta counter. Data were normalized using the incorporation of the positive (parasitized RBCs without drug) and negative (same culture with artesunate at 2 μM) controls. All assays were conducted in triplicate using three independently grown cultures, and EC50 values were determined using the XLfit add-in module for Excel (version 2.3.1) from Grafit (version 5.3.1.3), where parameter h is the assay hill slope, x is the compound concentration and y is the inhibition of growth effect. The XLfit equation is: […]
Alternatively, a SYBR Green-based proliferation approach was used for the 72-h assay, as previously described. […]

[1] = tested on: CYTb-G131S (cytb G131S, parent Dd2); assay: Cross-resistance EC50 assay, CYTb-G131S; settings: SYBR green 72 hour assay, synchronized parasites, 384-well format
Description: as §1, with “set. […]” for “set.”
(§2) Alternatively, a SYBR Green-based proliferation approach was used for the 72-h assay, as previously described. Briefly, a culture of either synchronized or asynchronous parasitized RBCs (0.3% parasitemia and 4% haematocrit) in screening medium (identical to supplemented medium above except no serum was added) was exposed to serial drug dilutions. Plates were incubated at 37 °C and gassed with 93% N2, 4% CO2 and 3% O2 for 72 h. Following incubation, 10 × SYBR Green I (Invitrogen; supplied in 10,000 × concentration) in lysis buffer ([…], 5 mM EDTA, 0.16% Saponin wt per vol and 1.6% Triton X vol per vol) was added to the wells and the plates were incubated overnight at room temperature before plate reading. EC50 assays were repeated three times, taking the average EC50 value from each assay set, and removing any outliers using a single iteration of Grubbs' test, eliminating values with z-scores above the critical z-value (α=0.05). The raw EC50 values for synchronized parasites assayed in a 384-well format are listed in Supplementary Data 4. The raw EC50 values for asynchronous parasites assayed in a 96 or 1536-well format are listed in Supplementary Data 5.
(§3) EC50 values for each strain were compared with those of the corresponding parent strain to determine fold-shift changes and identify resistance. To minimize the cause variance between assays, all comparisons were conducted between strains assayed under identical conditions. A one-way ANOVA followed by a Dunnet's post-test was conducted in GraphPad Prism to identify significant changes between the parent and resistant strain.

[2] = tested on: ATQ-R5 (cytb F267V, parent 3D7); assay: Cross-resistance EC50 assay, ATQ-R5; settings: SYBR green 72 hour assay, asynchronized parasites, 96-well or 1536-well format
Description: as §1, with “set. […]” for “set.”
as §2, §3

[3] = tested on: GNF156R (PfCARL L830V, S1076I and M81I, parent Dd2); assay: Cross-resistance EC50 assay, GNF156R; settings: SYBR green 72 hour assay, asynchronized parasites, 96-well or 1536-well format
Description: as §1, with “set. […]” for “set.”
as §2, §3

| Structure (SMILES) | W2F6 (PARENT) Average Hill Slope (W2) | CYTb:G131S (Dd2 Parent) Average Hill Slope ([1]; strain CYTb:G131S (Dd2 parent)) | ATQ-R5 (3D7 Parent) Average Hill Slope [2] | GNF156R (Dd2 Parent) Average Hill Slope [3] | CYTb:G131S (Dd2 Parent) Average Hill Slope ([1]; CYTb:G131S strain) |
| --- | --- | --- | --- | --- | --- |
| CN1CCN(c2ccc(Nc3c4ccccc4nc4ccccc34)cc2)CC1 [MMV006172] | 1.78 | 2.30 | 3.97 | 3.00 |  |
| O=C(Nc1ccc(Cl)c(Cl)c1)Nc1ccc(Cl)c(Cl)c1 [MMV665852] | 5.68 | 5.23 | 5.23 | 3.80 |  |
| CCCCCCCN(Cc1ccc(OC(C)(C)C(=O)OCC)cc1)C(=O)Nc1ccc(Cl)cc1OCC [MMV021735] | 1.66 | 1.92 | 1.84 | 1.97 |  |
| O=C(Nc1ccccc1O)c1ccc(Oc2cccc(C(=O)Nc3ccccc3O)c2)cc1 [MMV665888] | 4.61 | 2.47 | 1.20 | 1.45 |  |
| c1cc(-c2cnc3ccc(-c4ccc(N5CCOCC5)cc4)nn23)ccn1 [MMV668311] | 1.74 | 5.72 | 2.19 | 1.41 |  |
| COc1ccc2c3c([nH]c2c1)[C@H](CO)N(C(C)=O)CC31CCN(C(=O)Nc2ccccc2F)CC1 [MMV673482] | 1.01 |  | 1.85 | 1.19 | 1.51 |
| Nc1ccc(-c2nc3cc(Cc4ccc5[nH]c(-c6ccc(N)cc6)nc5c4)ccc3[nH]2)cc1 [MMV665943] | 1.02 | 3.89 | 3.22 | 3.70 |  |
| CCOc1cc2c(cc1OCC)C(c1cc(Cl)ccc1O)NCC2 (stereo not drawn) [MMV000478] | 1.69 | 1.32 | 1.63 | 1.20 |  |
| CNCc1ccc2nc(-c3coc(Cc4cc(Cl)ccc4OCC(C)C)n3)[nH]c2c1.Cl.Cl [MMV026596] | 2.40 | 3.39 | 2.80 | 1.09 |  |
| Cl.c1ccc2c(NCCCCCCNc3c4c(nc5ccccc35)CCCC4)c3c(nc2c1)CCCC3 [MMV019555] | 4.28 | 2.50 | 4.18 | 2.29 |  |
| O=C(NC(c1ccccc1)c1ccc2cccnc2c1O)c1ccccc1 (stereo not drawn) [MMV666080] | 0.69 | 2.12 | 1.74 | 1.72 |  |
| CN(C)S(=O)(=O)c1cc(-c2ccc3nccc(-c4cccc(S(N)(=O)=O)c4)c3c2)cnc1N [MMV024038] | 2.03 | 2.84 | 2.37 | 2.53 |  |
| Cc1nc2ccc3ccc(CNc4ccc(C(=O)CC(CCC(=O)O)C(=O)O)cc4)cc3c2c(=O)[nH]1.Cl (stereo not drawn) [MMV027634] | 1.09 | 2.12 | 1.83 | 1.90 |  |
| CCN(CC)CCn1c(=N)n(CC(O)c2ccc(Cl)c(Cl)c2)c2ccccc21.Cl (stereo not drawn) [MMV000248] | 3.73 | 2.57 | 2.48 | 2.28 |  |
| Brc1ccc(Nc2nc3ccccc3nc2Nc2ccc(Br)cc2)cc1 [MMV007224] | 1.86 | 4.57 | 5.68 | 6.90 |  |
| c1cncc(-c2cc(N3CCC(CN4CCOCC4)CC3)nc(-c3ccncc3)n2)c1 [MMV668399] | 1.29 | 3.33 | 2.41 | 1.59 |  |
| COc1ccc(N2CCN(C(CNC(=O)C3CCCCC3)c3ccc4c(c3)OCO4)CC2)cc1 (stereo not drawn) [MMV019662] | 1.75 | 2.23 | 1.54 | 2.07 |  |
| OC(CNC1CCCCC1)Cn1c2ccc(I)cc2c2cc(I)ccc21 (stereo not drawn) [MMV665882] | 1.79 | 1.72 | 2.11 | 1.81 |  |
| CCC(C)NCC(O)(c1ccc(Cl)cc1)c1ccc(Cl)cc1 (stereo not drawn) [MMV665928] | 2.35 | 1.73 | 1.56 | 1.42 |  |
| CCCN(CCC)CC(O)COc1ccccc1C(=O)Nc1ccccc1 (stereo not drawn) [MMV006455] | 3.71 | 1.88 | 1.80 | 1.30 |  |
| FC(F)(F)c1cccc(Nc2nc3ccccc3nc2Nc2cccc(C(F)(F)F)c2)c1 [MMV665794] | 13.8 | 5.9 | 5.53 | 2.75 |  |
| Cc1c(C)n(Cc2ccc(F)cc2)c2ccc(C(=O)NCc3ccco3)cc12 [MMV008149] | 0.77 |  | 1.15 | 1.03 |  |
